Experimental data from PubChem BioAssay AID248 (DTP/NCI, 2004).
The list is a part of this screen's results and no random one: it gathers tests that were run many times, whatever their T/C, doses with no T/C, and many T/C values between a quarter and a half above the control. Further doses and runs are listed elsewhere. T/C is the treated group as % of the vehicle group. Some entries give survivors of the animals treated and no T/C: the source files T/C as zero there, which appears to mark a toxic dose or a test without result, not a measured value. Some doses without a T/C left all or most animals alive at the check, yet need not have been tolerated: survival well below the control is almost never listed, so the zero probably covers shortened survival too. Counts of survivors are from the toxicity check (mostly the fifth day) where no day follows; animals may have died later. Schedules are NCI's codes, taken here to give the interval after Q, in days (D) or hours (H), and the number of doses after X. Some schedule codes hold Z or #, which are not explained here. Some molecules as drawn cover several salts, stereoisomers or complexes of the source; a dose is that of the sample tested. Some entries were tested several times; their values stand side by side, smallest first. For survival time, this PubChem deposit counts one and a half times the control or more as active, and values a quarter to a half above the control carry no call in these data; other NCI protocols may use other cut-offs. Some T/C values carry the count of animals alive at the toxicity check (mostly the fifth day); where none is given, no animal had died by that day. Signs of the kind (2×) count equal records among those shown.

Tested on: L1210 leukemia ip in BDF1 mice, survival T/C
Experiment: NCI In Vivo Anticancer Drug Screen. Data for tumor model L1210 Leukemia (intraperitoneal) in B6D2F1 (BDF1) mice
Conditions: T/C endpoint: mean survival time, higher T/C = longer survival
[1] = dose: 200.0 mg/kg/injection, schedule: Q04DX003 (ip), vehicle: saline
[2] = dose: 400.0 mg/kg/injection, schedule: Q04DX003 (ip), vehicle: saline
[3] = dose: 400.0 mg/kg/injection, schedule: Q01DX001 (ip), vehicle: saline
[4] = dose: 100.0 mg/kg/injection, schedule: Q01DX009 (ip), vehicle: saline
[5] = dose: 200.0 mg/kg/injection, schedule: Q01DX009 (ip), vehicle: saline
[6] = dose: 400.0 mg/kg/injection, schedule: Q01DX009 (ip), vehicle: saline
[7] = dose: 100.0 mg/kg/injection, schedule: Q01DX001 (ip), vehicle: Klucel (hydroxypropylcellulose) (HPC)
[8] = dose: 200.0 mg/kg/injection, schedule: Q01DX001 (ip), vehicle: Klucel (hydroxypropylcellulose) (HPC)
[9] = dose: 400.0 mg/kg/injection, schedule: Q01DX001 (ip), vehicle: Klucel (hydroxypropylcellulose) (HPC)
[10] = dose: 400.0 mg/kg/injection, schedule: Q01DX009 (ip), vehicle: Klucel (hydroxypropylcellulose) (HPC)
[11] = dose: 50.0 mg/kg/injection, schedule: Q01DX009 (ip), vehicle: saline
[12] = dose: 6.25 mg/kg/injection, schedule: Q01DX009 (ip), vehicle: saline
[13] = dose: 200.0 mg/kg/injection, schedule: Q01DX009 (ip), vehicle: Klucel (hydroxypropylcellulose) (HPC)

`COC1OC(CN(CCO)CCO)C2OC(C)(C)OC12` (stereo not given) was tested, and the survivor count (dose: 150.0 mg/kg/injection, schedule: Q01DX009 (ip), vehicle: saline) was 0 of 6, the survivor count [1] was 1 of 6 and the survivor count (dose: 225.0 mg/kg/injection, schedule: Q01DX009 (ip), vehicle: saline) was 1 of 6. For the same molecule, the survivor count [2] was 1 of 6.
`C[C@@H]1C[C@@]2(C)[C@@H](CC[C@@H]3[C@@H]2CC[C@]2(C)OC(=O)CC[C@@H]32)CC1=O` was tested, and the survivor count (dose: 400.0 mg/kg/injection, schedule: Q04DX003 (ip), vehicle: other) was 6 of 6.
With `CCOC(=O)N1N=C([P+](c2ccccc2)(c2ccccc2)c2ccccc2)CC1(c1ccccc1)c1ccccc1` the survivor count (dose: 100.0 mg/kg/injection, schedule: Q01DX001 (ip), vehicle: saline) was 2 of 6, the survivor count (dose: 200.0 mg/kg/injection, schedule: Q01DX001 (ip), vehicle: saline) was 0 of 6 and the survivor count [3] was 0 of 6.
`CN(C)CCCN1c2ccccc2CCc2ccccc21` was tested, and the survivor count [4] was 5 of 6, the survivor count (dose: 100.0 mg/kg/injection, schedule: Q04DX003 (ip), vehicle: saline) was 0 of 4 and the survivor count [5] was 0 of 6. For the same molecule, the survivor count [1] was 0 of 4, the survivor count [3] was 0 of 6 and the survivor count [6] was 0 of 6. For the same molecule, the survivor count [2] was 4 of 4.
In the case of `O=C1C2C3CCC(O3)C2C(=O)N1C(=O)N1C(=O)C2C3CCC(O3)C2C1=O` (stereo not given), the survivor count (dose: 200.0 mg/kg/injection, schedule: Q04DX002 (ip), vehicle: Klucel (hydroxypropylcellulose) (HPC)) was 1 of 3 and the survivor count (dose: 400.0 mg/kg/injection, schedule: Q04DX002 (ip), vehicle: Klucel (hydroxypropylcellulose) (HPC)) was 0 of 3.
With `O=C(C[n+]1cccc(C(=O)Nc2ccccc2)c1)Nc1ccccc1` the survivor count [1] was 0 of 6 and the survivor count [2] was 0 of 6.
For `N=C(N)N=Nc1ccc(NN=C(N)N)cc1`, the T/C (dose: 15.0 mg/kg/injection, schedule: Q01DX Z (ip), vehicle: saline) was 127 and 138 % of control, the T/C (dose: 30.0 mg/kg/injection, schedule: Q01DX Z (ip), vehicle: saline) was 126 % of control and the survivor count (dose: 120.0 mg/kg/injection, schedule: Q01DX Z (ip), vehicle: saline) was 0 of 6.
In the case of `CSC(N)=Nc1cccc2c1CCCC2`, the survivor count [5] was 1 of 6 and the survivor count [2] was 0 of 6.
`CCCCCCCCCCCCCCCCSCCOC(=O)C1C2CCC(O2)C1C(=O)O` (stereo not given) was tested, and the survivor count [7] was 1 of 6, the survivor count [8] was 0 of 6 and the survivor count [9] was 1 of 6.
In the case of `Cc1ccc(S(=O)(=O)OCC2C(c3ccccc3)CCC(c3ccccc3)C2COS(=O)(=O)c2ccc(C)cc2)cc1` (stereo not given), the survivor count [10] was 6 of 6.
With `CCCCN(C)N=Nc1ccc(CCCC(=O)OCC)cc1` the T/C [11] was 126 % of control, the T/C (dose: 75.0 mg/kg/injection, schedule: Q01DX009 (ip), vehicle: saline) was 132 % of control and the T/C (dose: 187.5 mg/kg/injection, schedule: Q01DX009 (ip), vehicle: saline) was 128 % of control. The survivor count [5] was 5 of 6, the T/C [1] was 138 % of control and the survivor count [2] was 3 of 6.
In the case of `COC(=O)C1OC1(C)c1ccc(C)cc1` (stereo not given), the survivor count (dose: 200.0 mg/kg/injection, schedule: Q01DX009 (ip), vehicle: saline with Tween-80) was 3 of 3.
In the case of `C(=P(c1ccccc1)(c1ccccc1)c1ccccc1)[P+](c1ccccc1)(c1ccccc1)c1ccccc1`, the T/C (dose: 3.13 mg/kg/injection, schedule: Q01DX009 (ip), vehicle: saline) was 93 [2 of 3 alive], 102 (2×), 104 % of control, the T/C (dose: 4.12 mg/kg/injection, schedule: Q01DX009 (ip), vehicle: saline) was 125 % of control and the T/C [12] was 134 % of control. The survivor count [12] was 0 of 3 and 4 of 6, the T/C (dose: 9.3 mg/kg/injection, schedule: Q01DX009 (ip), vehicle: saline) was 136 % of control and the survivor count (dose: 12.5 mg/kg/injection, schedule: Q01DX009 (ip), vehicle: saline) was 0 of 3 and 3 of 6. The survivor count (dose: 25.0 mg/kg/injection, schedule: Q01DX009 (ip), vehicle: saline) was 6 of 6, the survivor count [11] was 1 of 6 and 1 of 3 and the survivor count [4] was 0 of 3. The survivor count (dose: 100.0 mg/kg/injection, schedule: Q04DX002 (ip), vehicle: saline) was 0 of 3 and 0 of 6, the survivor count [5] was 0 of 3 and the survivor count (dose: 200.0 mg/kg/injection, schedule: Q04DX002 (ip), vehicle: saline) was 0 of 3 and 0 of 6. The survivor count (dose: 400.0 mg/kg/injection, schedule: Q04DX002 (ip), vehicle: saline) was 0 of 3, 0 of 6, 3 of 3.
In the case of `CCCCC/C=N\NC(N)=S`, the survivor count (dose: 200.0 mg/kg/injection, schedule: Q01DX001 (ip), vehicle: carboxymethylcellulose (CMC)) was 2 of 4 and the survivor count (dose: 400.0 mg/kg/injection, schedule: Q01DX001 (ip), vehicle: carboxymethylcellulose (CMC)) was 1 of 4.
For `O=C(NCCO)Nc1ccc(Cl)c(Cl)c1`, the survivor count (dose: 100.0 mg/kg/injection, schedule: Q04DX003 (ip), vehicle: Klucel (hydroxypropylcellulose) (HPC)) was 6 of 6.
For `Fc1ccc(NC(=S)NCCN2CCCC2)cc1`, the survivor count [13] was 3 of 6 and the survivor count [10] was 0 of 6.
In the case of `CC(C)NCCC(=O)c1ccc(OCc2ccccc2)cc1`, the survivor count [5] was 0 of 6 and the survivor count [6] was 0 of 6.
`COC(=O)C1=C(C)NC(=O)NC1c1ccc(N(CCCl)CCCl)c(OC)c1` (stereo not given) was tested, and the T/C (dose: 25.0 mg/kg/injection, schedule: Q01DX001 (ip), vehicle: Klucel (hydroxypropylcellulose) (HPC)) was 129 % of control, the survivor count (dose: 25.0 mg/kg/injection, schedule: Q01DX009 (ip), vehicle: Klucel (hydroxypropylcellulose) (HPC)) was 1 of 6 and the T/C (dose: 50.0 mg/kg/injection, schedule: Q01DX001 (ip), vehicle: Klucel (hydroxypropylcellulose) (HPC)) was 140 % of control. For the same molecule, the survivor count (dose: 50.0 mg/kg/injection, schedule: Q01DX009 (ip), vehicle: Klucel (hydroxypropylcellulose) (HPC)) was 1 of 6, the T/C [7] was 129 % of control [4 of 6 alive] and the survivor count (dose: 100.0 mg/kg/injection, schedule: Q01DX009 (ip), vehicle: Klucel (hydroxypropylcellulose) (HPC)) was 1 of 6. The survivor count [8] was 2 of 6 and the survivor count [9] was 0 of 6.
With `COc1ccc(-c2sc(/N=C/c3cc(OC)c(OC)c(OC)c3)c(C#N)c2C)cc1OC` the survivor count (dose: 200.0 mg/kg/injection, schedule: Q04DX002 (ip), vehicle: saline with Tween-80) was 3 of 3.
For `CC(=O)OCC1OC(n2cnc3c(=S)nc(N)[nH]c32)C(OC(C)=O)C1OC(C)=O` (stereo not given), the T/C (dose: 3.3 mg/kg/injection, schedule: Q01DX Z (ip), vehicle: carboxymethylcellulose (CMC)) was 127 % of control, the survivor count (dose: 88.0 mg/kg/injection, schedule: Q01DX Z (ip), vehicle: carboxymethylcellulose (CMC)) was 6 of 6 and the T/C (dose: 100.0 mg/kg/injection, schedule: Q01DX015 (oral), vehicle: other) was 143 % of control.
With `O=[N+]([O-])c1cccc(C=Nc2cc([N+](=O)[O-])ccc2O)c1` the survivor count [10] was 6 of 6.
In the case of `CCOC(=O)NCC(C)(CCN1CCOCC1)c1cccc2ccccc12` (stereo not given), the survivor count [13] was 0 of 6 and the survivor count [10] was 0 of 6.
In the case of `CC1(C)N=C(N)N=C(N)N1c1ccc(OCCCNC(=O)Nc2ccc(S(=O)(=O)F)cc2)c(Cl)c1`, the survivor count (dose: 200.0 mg/kg/injection, schedule: Q01DX004 (ip), vehicle: saline) was 0 of 6 and the survivor count (dose: 400.0 mg/kg/injection, schedule: Q01DX004 (ip), vehicle: saline) was 0 of 6.
For `CN=C(Nc1ccccc1C)SC`, the survivor count [3] was 2 of 6.
For `CNS(=O)(=O)c1c(C)cccc1CC(=O)c1ccccc1`, the survivor count (dose: 200.0 mg/kg/injection, schedule: Q01DX001 (ip), vehicle: steroid suspending solution) was 6 of 6.
For `O=c1sc2ccccc2n1-c1ccccc1`, the survivor count (dose: 400.0 mg/kg/injection, schedule: Q04DX003 (ip), vehicle: Klucel (hydroxypropylcellulose) (HPC)) was 6 of 6.
